# Drug screen on melanoma cell lines: apoptosis marker

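Human melanoma cells were exposed to a pair of drugs for 72 h in 1,536-well plates and read by automated microscopy after fixing and staining. Values are the share of nuclei positive for cleaved PARP as a percentage of the same share in the DMSO control: 100 is the control level, higher means more apoptosis. Concentrations were fixed for each drug; these are the higher of two levels. No replicate spread is given; individual values may be noisy. The marker varies much from line to line, for technical or biological reasons.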
Only some of the drugs and lines screened are listed, without regard to their results.
An entry leaves out what has no value listed here.

Drug key:
PF-562271: CN(c1ncccc1CNc1nc(Nc2ccc3c(c2)CC(=O)N3)ncc1C(F)(F)F)S(C)(=O)=O at 0.4 µM
dasatinib: Cc1nc(Nc2ncc(C(=O)Nc3c(C)cccc3Cl)s2)cc(N2CCN(CCO)CC2)n1 at 0.02 µM
KU-55933: O=c1cc(-c2cccc3c2Sc2ccccc2S3)oc(N2CCOCC2)c1 at 5 µM
PLX4720: CCCS(=O)(=O)Nc1ccc(F)c(C(=O)c2c[nH]c3ncc(Cl)cc23)c1F at 0.4 µM
pioglitazone: CCc1ccc(CCOc2ccc(CC3SC(=O)NC3=O)cc2)nc1 (stereo not shown) at 10 µM
LFM-A13: C/C(O)=C(\C#N)C(=O)Nc1cc(Br)ccc1Br at 10 µM
stibogluconate: O=C(O)[C@@H]1[O][Sb](=[O])([O][Sb]2(=[O])[O][C@H]([C@H](O)CO)[C@H](O)[C@H](C(=O)O)[O]2)[O][C@H]([C@H](O)CO)[C@@H]1O (stereo partly shown) at 10 µM
ZM336372: Cc1ccc(NC(=O)c2cccc(N(C)C)c2)cc1NC(=O)c1ccc(O)cc1 at 10 µM
L-779450: Oc1cc(-c2nc(-c3ccccc3)[nH]c2-c2ccncc2)ccc1Cl at 1 µM
dorsomorphin: c1cc(-c2cnn3cc(-c4ccc(OCCN5CCCCC5)cc4)cnc23)ccn1 at 2 µM

{"combination": "dasatinib + LFM-A13", "WM1716": 96.3, "SK-MEL-28": 43.1, "A375": 61.3, "IPC-298": 192}
{"combination": "dorsomorphin + LFM-A13", "WM1716": 42.5, "SK-MEL-28": 159, "A375": 44.7, "IPC-298": 95.0}
{"combination": "KU-55933 + pioglitazone", "WM1716": 105, "SK-MEL-28": 47.6, "A375": 34.2, "IPC-298": 58.2}
{"combination": "pioglitazone + dasatinib", "WM1716": 74.6, "SK-MEL-28": 142, "A375": 65.7, "IPC-298": 101}
{"combination": "dorsomorphin + ZM336372", "WM1716": 142, "SK-MEL-28": 39.7, "A375": 194, "IPC-298": 96.2}
{"combination": "L-779450 + stibogluconate", "WM1716": 164, "SK-MEL-28": 93.9, "A375": 479, "IPC-298": 65.8}
{"combination": "PF-562271 + LFM-A13", "WM1716": 208, "SK-MEL-28": 173, "A375": 158, "IPC-298": 62.2}
{"combination": "stibogluconate + PLX4720", "WM1716": 229, "SK-MEL-28": 117, "A375": 112, "IPC-298": 52.4}
{"combination": "dasatinib + PF-562271", "WM1716": 610, "SK-MEL-28": 235, "A375": 148, "IPC-298": 128}
{"combination": "PF-562271 + PLX4720", "WM1716": 164, "SK-MEL-28": 128, "A375": 552, "IPC-298": 165}
{"combination": "ZM336372 + PLX4720", "WM1716": 81.0, "SK-MEL-28": 68.0, "IPC-298": 100}
{"combination": "LFM-A13 + L-779450", "WM1716": 137, "SK-MEL-28": 91.8, "A375": 146, "IPC-298": 95.2}
{"combination": "PLX4720 + dasatinib", "WM1716": 140, "SK-MEL-28": 153, "A375": 147, "IPC-298": 73.8}
{"combination": "L-779450 + PLX4720", "WM1716": 142, "SK-MEL-28": 179, "A375": 224, "IPC-298": 51.5}
{"combination": "KU-55933 + dasatinib", "WM1716": 234, "SK-MEL-28": 165, "A375": 105, "IPC-298": 96.0}
{"combination": "dorsomorphin + KU-55933", "WM1716": 18.2, "SK-MEL-28": 159, "A375": 83.6, "IPC-298": 25.1}
{"combination": "PF-562271 + ZM336372", "WM1716": 52.8, "SK-MEL-28": 153, "IPC-298": 25.3}
{"combination": "pioglitazone + stibogluconate", "WM1716": 95.4, "SK-MEL-28": 78.8, "A375": 68.3, "IPC-298": 82.2}
{"combination": "PF-562271 + KU-55933", "WM1716": 117, "SK-MEL-28": 86.8, "A375": 128, "IPC-298": 93.7}
{"combination": "dasatinib + dorsomorphin", "WM1716": 85.2, "SK-MEL-28": 164, "A375": 88.6, "IPC-298": 110}
{"combination": "PLX4720 + dorsomorphin", "WM1716": 175, "SK-MEL-28": 60.9, "A375": 179, "IPC-298": 138}
{"combination": "LFM-A13 + KU-55933", "WM1716": 100, "SK-MEL-28": 38.0, "A375": 70.3, "IPC-298": 121}
{"combination": "pioglitazone + dorsomorphin", "WM1716": 93.4, "SK-MEL-28": 46.4, "A375": 31.7, "IPC-298": 97.9}
{"combination": "LFM-A13 + PLX4720", "WM1716": 155, "SK-MEL-28": 191, "A375": 256, "IPC-298": 45.1}
{"combination": "ZM336372 + dasatinib", "WM1716": 425, "SK-MEL-28": 149, "IPC-298": 64.4}
{"combination": "stibogluconate + LFM-A13", "WM1716": 47.7, "SK-MEL-28": 84.3, "A375": 63.0, "IPC-298": 32.6}
{"combination": "PF-562271 + dorsomorphin", "WM1716": 171, "SK-MEL-28": 127, "A375": 227, "IPC-298": 70.3}
{"combination": "pioglitazone + PF-562271", "WM1716": 128, "SK-MEL-28": 116, "A375": 225, "IPC-298": 90.2}
{"combination": "ZM336372 + L-779450", "WM1716": 214, "SK-MEL-28": 132, "A375": 528, "IPC-298": 90.7}
{"combination": "stibogluconate + ZM336372", "WM1716": 201, "SK-MEL-28": 119, "IPC-298": 73.6}
{"combination": "pioglitazone + LFM-A13", "WM1716": 79.3, "SK-MEL-28": 69.0, "A375": 42.5, "IPC-298": 121}
{"combination": "stibogluconate + KU-55933", "WM1716": 236, "SK-MEL-28": 447, "A375": 92.2, "IPC-298": 42.2}
{"combination": "ZM336372 + pioglitazone", "WM1716": 41.2, "SK-MEL-28": 69.2, "A375": 204, "IPC-298": 81.5}
{"combination": "dorsomorphin + stibogluconate", "WM1716": 141, "SK-MEL-28": 16.4, "A375": 87.8, "IPC-298": 40.8}
{"combination": "dasatinib + L-779450", "WM1716": 209, "SK-MEL-28": 271, "A375": 428, "IPC-298": 71.8}
{"combination": "pioglitazone + PLX4720", "WM1716": 332, "SK-MEL-28": 307, "A375": 239, "IPC-298": 122}
{"combination": "PLX4720 + KU-55933", "WM1716": 263, "SK-MEL-28": 76.9, "A375": 210, "IPC-298": 220}
{"combination": "KU-55933 + ZM336372", "WM1716": 66.3, "SK-MEL-28": 152, "A375": 36.4, "IPC-298": 73.7}
{"combination": "dorsomorphin + L-779450", "WM1716": 122, "SK-MEL-28": 58.1, "A375": 198, "IPC-298": 99.2}
{"combination": "PF-562271 + stibogluconate", "WM1716": 67.6, "SK-MEL-28": 85.5, "A375": 86.3, "IPC-298": 35.0}

Some entries from above, unchanged:

{"combination": "dorsomorphin + KU-55933", "WM1716": 18.2, "SK-MEL-28": 159, "A375": 83.6, "IPC-298": 25.1}
{"combination": "ZM336372 + L-779450", "WM1716": 214, "SK-MEL-28": 132, "A375": 528, "IPC-298": 90.7}
{"combination": "PLX4720 + dasatinib", "WM1716": 140, "SK-MEL-28": 153, "A375": 147, "IPC-298": 73.8}

From a melanoma drug combination screen (doi:10.1371/journal.pone.0140310); values rounded.